Source: PMC7606276, “The Antibacterial Effects of New N-Alkylpyridinium Salts on Planktonic and Biofilm Bacteria” (Frontiers in Microbiology, 2020)

Tested on: CHO-K1 cells
Assay: MTT cell viability assay on CHO-K1 cells
Assay type: cell-based, Chinese hamster
Conditions: Cricetulus griseus, CHO-K1, 24 h, read-out: IC50 ± SEM
Procedure: Standard MTT assay (3-(4,5-dimethylthiazol-2-yl)-2,5-diphenyltetrazolium bromide; Sigma-Aldrich, Prague, Czechia) was used according to the manufacturer’s protocol on the CHO-K1 (Chinese hamster ovary, ECACC, Salisbury, United Kingdom) in order to compare the effect of different compounds within the series. The cells were cultured according to ECACC recommended conditions and seeded in a density of 8000 per well as described previously ([Soukup et al., 2020]). […] In the case of sodium hypochloride, the commercially available detergent called Savo containing this active compound was diluted to the initial half concentration (i.e., 2.35%) with the supplemented growth medium mentioned above. Thereafter, CHO-K1 cells were exposed to two-fold diluted series A, B, C or ten-fold diluted sodium hypochlorite for 24 h. Then the medium was replaced by a medium containing 0.5 mg/ml of MTT and the cells were allowed to produce formazan for approximately 3 h under surveillance. […] Cell viability was assessed spectrophotometrically by the amount of formazan produced. The absorbance was measured at 570 nm on Synergy HT (BioTek, Winooski, VT, United States). IC50 (half maximal inhibitory concentration) was then calculated from the control – subtracted triplicates using non-linear regression (four parameters) by GraphPad Prism 5.03 or 7.03 software (GraphPad Software Inc., San Diego, CA, United States). […]

Structure (SMILES): CCCCCCCCCCCCCCCC[n+]1ccccc1 [Compound A16]
- IC50: 16.7 ± 0.2 µM
